For part of its entries the source gives two or more results. This is not the full list of results. An entry can have further records. The values listed for one entry do not match, cause unknown; some may be repeats, others may stem from another dose, organism or construct than stated.
Test system: Caco-2 monolayer
Assay: Caco-2 permeability assay
Details: 10 µM

Row | Compound | Mass Balance (recovery) (A→B) | Mass Balance (recovery) (B→A)
1 | CCCCC/C=C/C(=O)CCc1ccc(O)c(OC)c1 [6S, 6-shogaol] | less than 25% and 4% | less than 25% and 21%
2 | CCCCCCCCC[C@H](O)CC(=O)CCc1ccc(O)c(OC)c1 [10G, 10-gingerol] | less than 50% and 22% | less than 50% and 44%

From PMC4177392, “Modulation of Cytochrome P450 Metabolism and Transport across Intestinal Epithelial Barrier by Ginger Biophenolics” (PLoS ONE, 2014)
